Assay results taken from the supplement of paper PMC8866396.
Structures can show the parent of a compound that is named as a salt. ± gives the standard deviation of the averaged measurements. This is one part of the list. Most values lie within the scatter of the assay; repeated measurements hardly agree.

Key:
IL-6-GFP PC-9GR = assay: IL-6-GFP fluorescence relative to DMSO control (fraction of control); higher = more IL-6-GFP expression; settings: compound concentration: 10 uM; treatment time: 48 h
Description: (§1)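 IL-6-GFP-overexpressing PC-9 and PC-9GR EGFR-mutant lung cancer cells (3000 cells/well, 96-well) were treated for 48 h with each compound of the Selleck L2000 library at 10 uM. IL-6-GFP fluorescence was read on a high-content screening system, and viability by CCK-8 absorbance on a parallel plate set. Each value was normalised as compound well / DMSO control well; two independent replicates.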

IL-6-GFP PC-9 = assay: as above; settings: compound concentration: 10 uM; treatment time: 48 h
Description: as §1

Row | Structure (SMILES) | IL-6-GFP fluorescence (IL-6-GFP PC-9GR) | IL-6-GFP fluorescence (IL-6-GFP PC-9)
1 | Cc1nc(Nc2ncc(C(=O)Nc3c(C)cccc3Cl)s2)cc(N2CCN(CCO)CC2)n1.Cl [Dasatinib hydrochloride] | 1.38 ± 0.15 | 1.04 ± 0.11
2 | O=C(O)CCCN1CCC(OC(c2ccc(Cl)cc2)c2ccccn2)CC1 (stereo not drawn) [Bepotastine] | 0.933 ± 0.019 | 0.912 ± 0.019
3 | CCOC(=O)C(CCc1ccccc1)NC1CSC(c2cccs2)CN(CC(=O)O)C1=O (stereo not drawn) [Temocapril] | 1.09 ± 0.26 | 1.01 ± 0.04
4 | CC12CCC(CC1=O)C2(C)C (stereo not drawn) [Camphor] | 0.666 ± 0.24 | 0.866 ± 0.083
5 | COc1c2occc2cc2ccc(=O)oc12 [Methoxsalen] | 0.69 ± 0.31 | 0.926 ± 0.067
6 | CN1CCC(=C2c3ccccc3C=Cc3ccccc32)CC1.Cl [Cyproheptadine hydrochloride] | 0.587 ± 0.32 | 0.939 ± 0.061
7 | COc1cc2c3cc1Oc1c(OC)c(OC)cc4c1C(Cc1ccc(O)c(c1)Oc1ccc(cc1)CC3N(C)CC2)N(C)CC4.Cl.Cl (stereo not drawn) [Berbamine (dihydrochloride)] | 0.951 ± 0.045 | 0.821 ± 0.24
8 | CCC1(O)CC2CN(CCc3c([nH]c4ccccc34)C(C(=O)OC)(c3cc4c(cc3OC)N(C=O)C3C(O)(C(=O)OC)C(OC(C)=O)C5(CC)C=CCN6CCC43C65)C2)C1.O=S(=O)(O)O (stereo not drawn) [Vincristine sulfate] | 1.05 ± 0.029 | 1.01 ± 0.06
9 | COc1cc(C(=O)NS(=O)(=O)c2ccccc2C)ccc1Cc1cn(C)c2ccc(NC(=O)OC3CCCC3)cc12 [Zafirlukast] | 0.709 ± 0.16 | 0.938 ± 0.14
10 | NC(=O)Cc1cccc(C(=O)c2ccccc2)c1N [Nepafenac] | 0.8176 ± 0.0067 | 0.737 ± 0.023
11 | Nc1nnc(-c2cccc(Cl)c2Cl)c(N)n1 [Lamotrigine] | 0.909 ± 0.14 | 0.727 ± 0.33
12 | CC(=O)Nc1ccc(CC(=O)O)cc1 [Actarit] | 0.836 ± 0.083 | 0.922 ± 0.2
13 | Cc1ccc(Nc2nccc(N(C)c3ccc4c(C)n(C)nc4c3)n2)cc1S(N)(=O)=O.Cl | 0.918 ± 0.034 | 0.977 ± 0.072
14 | COc1ccc(C2OCC3C(c4cc(OC)c(OC)c(OC)c4)OCC23)cc1OC (stereo not drawn) [Magnolin] | 0.8644 ± 0.0067 | 0.678 ± 0.27
15 | CC1(C(=O)O)CCC2(C)CCC3(C)C(=CC(=O)C4C5(C)CCC(OC6OC(C(=O)O)C(O)C(O)C6OC6OC(C(=O)O)C(O)C(O)C6O)C(C)(C)C5CCC43C)C2C1.N (stereo not drawn) [Ammonium Glycyrrhizinate] | 0.876 ± 0.07 | 0.806 ± 0.26
16 | Cc1nc(Nc2ncc(C(=O)Nc3c(C)cccc3Cl)s2)cc(N2CCN(CCO)CC2)n1.O [Dasatinib Monohydrate] | 1.1 ± 0.085 | 1.18 ± 0.11
17 | O=C([O-])Cc1ccccc1Nc1c(Cl)cccc1Cl.[K+] [Diclofenac Potassium] | 1 ± 0.021 | 0.717 ± 0.19
18 | CCOc1ccc(NC(C)=O)cc1 [Phenacetin] | 1.28 ± 0.24 | 0.862 ± 0.22
19 | O=C([O-])CC(O)(CC(=O)[O-])C(=O)[O-].O=C([O-])CC(O)(CC(=O)[O-])C(=O)[O-].[BiH6+3].[K+].[K+].[K+] [Gastrodenol] | 0.949 ± 0.24 | 0.798 ± 0.03
20 | CN(C)c1nc(N(C)C)nc(N(C)C)n1 [Altretamine] | 1.14 ± 0.083 | 0.712 ± 0.28

Row | Structure (SMILES) | IL-6-GFP fluorescence (IL-6-GFP PC-9GR) | IL-6-GFP fluorescence (IL-6-GFP PC-9)
21 | COC1=C(OC)C(=O)C(CCCCCCCCCCO)=C(C)C1=O [Idebenone] | 1.04 ± 0.4 | 0.91 ± 0.016
22 | CC(C)(O)CNc1nc(Nc2ccnc(C(F)(F)F)c2)nc(-c2cccc(C(F)(F)F)n2)n1 [Enasidenib (AG-221)] | 0.978 ± 0.16 | 0.776 ± 0.41
23 | CN(N=O)C(=O)NC1C(O)OC(CO)C(O)C1O (stereo not drawn) [Streptozotocin (STZ)] | 1.04 ± 0.052 | 1.11 ± 0.18
24 | CCC1=CC2CN(C1)Cc1c([nH]c3ccccc13)C(C(=O)OC)(c1cc3c(cc1OC)N(C)C1C(O)(C(=O)OC)C(OC(C)=O)C4(CC)C=CCN5CCC31C54)C2.O=C(O)C(O)C(O)C(=O)O.O=C(O)C(O)C(O)C(=O)O (stereo not drawn) [Vinorelbine Tartrate] | 0.747 ± 0.2 | 1.15 ± 0.14
25 | O=C(O)c1cc(-c2ccc(F)cc2F)ccc1O [Diflunisal] | 0.45 ± 0.48 | 0.917 ± 0.011
26 | COC(=O)/C=C/C(=O)OC [Dimethyl Fumarate] | 0.763 ± 0.17 | 0.76 ± 0.14
27 | O=C(/C=C/c1ccc(O)c(O)c1)OC(Cc1ccc(O)c(O)c1)C(=O)O (stereo not drawn) [Rosmarinic acid] | 1.41 ± 0.73 | 1.38 ± 0.52
28 | CC(=O)OC1CCC2(C)C(=CCC3C2CCC2(C)C(c4cccnc4)=CCC32)C1 (stereo not drawn) [Abiraterone Acetate] | 0.706 ± 0.17 | 0.821 ± 0.3
29 | CCCCC1C(=O)N(c2ccccc2)N(c2ccccc2)C1=O [Phenylbutazone] | 0.677 ± 0.36 | 0.882 ± 0.058
30 | CCOc1ccc(Cc2cc(C34OCC(CO)(O3)C(O)C(O)C4O)ccc2Cl)cc1 (stereo not drawn) [Ertugliflozin] | 0.928 ± 0.15 | 0.765 ± 0.015
31 | CC1CCC2(C(=O)OC3OC(COC4OC(CO)C(OC5OC(C)C(O)C(O)C5O)C(O)C4O)C(O)C(O)C3O)CCC3(C)C(=CCC4C5(C)CC(O)C(O)C(C)(CO)C5CCC43C)C2C1C (stereo not drawn) [Asiaticoside] | 0.9283 ± 0.0089 | 0.936 ± 0.25
32 | COc1nc2ccc(Br)cc2cc1C(c1ccccc1)C(O)(CCN(C)C)c1cccc2ccccc12.O=C(O)/C=C/C(=O)O (stereo not drawn) [Bedaquiline fumarate] | 0.847 ± 0.21 | 0.818 ± 0.057
33 | CCC1(O)CC2CN(CCc3c([nH]c4ccccc34)C(C(=O)OC)(c3cc4c(cc3OC)N(C)C3C(O)(C(=O)OC)C(OC(C)=O)C5(CC)C=CCN6CCC43C65)C2)C1.O=S(=O)(O)O (stereo not drawn) [Vinblastine sulfate] | 0.651 ± 0.16 | 1.12 ± 0.14
34 | CN(C)C(=O)COC(=O)Cc1ccc(OC(=O)c2ccc(NC(=N)N)cc2)cc1.CS(=O)(=O)O [Camostat Mesilate] | 0.989 ± 0.15 | 0.836 ± 0.23
35 | COC1OC2OC3(C)CCC4C(C)CCC(C1C)C24OO3 (stereo not drawn) [Artemether] | 0.756 ± 0.34 | 0.925 ± 0.15
36 | C=CCC1/C=C(\C)CC(C)CC(OC)C2OC(O)(C(=O)C(=O)N3CCCCC3C(=O)OC(/C(C)=C/C3CCC(O)C(OC)C3)C(C)C(O)CC1=O)C(C)CC2OC (stereo not drawn) [Tacrolimus (FK506)] | 0.727 ± 0.12 | 0.787 ± 0.11
37 | CC1CC2C3CCC4=CC(=O)C=CC4(C)C3(F)C(O)CC2(C)C1(O)C(=O)CO (stereo not drawn) [Betamethasone] | 0.82 ± 0.24 | 0.905 ± 0.18
38 | O=C1CCCC2C3CCC[N+]4([O-])CCCC(CN12)C34 (stereo not drawn) [Oxymatrine] | 0.78 ± 0.33 | 0.875 ± 0.17
39 | COc1cc(-c2coc3cc4c(c(OC)c3c2=O)OCO4)cc(OC)c1OC [Irisflorentin] | 0.941 ± 0.092 | 0.901 ± 0.071
40 | CC12CCC3c4ccc(O)cc4CC(CCCCCCCCCS(=O)CCCC(F)(F)C(F)(F)F)C3C1CCC2O (stereo not drawn) [Fulvestrant] | 1.07 ± 0.046 | 0.969 ± 0.1

Entries of single compounds as entered above.
CCOc1ccc(Cc2cc(C34OCC(CO)(O3)C(O)C(O)C4O)ccc2Cl)cc1 (stereo not drawn) [Ertugliflozin] in the list: IL-6-GFP fluorescence (IL-6-GFP PC-9GR): 0.928 ± 0.15; IL-6-GFP fluorescence (IL-6-GFP PC-9): 0.765 ± 0.015
O=C1CCCC2C3CCC[N+]4([O-])CCCC(CN12)C34 (stereo not drawn) [Oxymatrine] in the list: IL-6-GFP fluorescence (IL-6-GFP PC-9GR): 0.78 ± 0.33; IL-6-GFP fluorescence (IL-6-GFP PC-9): 0.875 ± 0.17
O=C(O)c1cc(-c2ccc(F)cc2F)ccc1O [Diflunisal] in the list: IL-6-GFP fluorescence (IL-6-GFP PC-9GR): 0.45 ± 0.48; IL-6-GFP fluorescence (IL-6-GFP PC-9): 0.917 ± 0.011
CC1CC2C3CCC4=CC(=O)C=CC4(C)C3(F)C(O)CC2(C)C1(O)C(=O)CO (stereo not drawn) [Betamethasone] in the list: IL-6-GFP fluorescence (IL-6-GFP PC-9GR): 0.82 ± 0.24; IL-6-GFP fluorescence (IL-6-GFP PC-9): 0.905 ± 0.18

The list continues:

Row | Structure (SMILES) | IL-6-GFP fluorescence (IL-6-GFP PC-9GR) | IL-6-GFP fluorescence (IL-6-GFP PC-9)
41 | COc1cc(C2c3cc4c(cc3C(OC3OC5COC(c6cccs6)OC5C(O)C3O)C3COC(=O)C23)OCO4)cc(OC)c1O (stereo not drawn) [Teniposide] | 1.03 ± 0.2 | 1.17 ± 0.29
42 | CCOc1ccccc1OCCNC(C)Cc1ccc(OC)c(S(N)(=O)=O)c1 (stereo not drawn) [Tamsulosin] | 0.831 ± 0.2 | 0.909 ± 0.15
43 | CC1(C)C2CCC1(C)C(O)C2 (stereo not drawn) [Borneol] | 1.01 ± 0.12 | 0.834 ± 0.31
44 | CNCC(O)C(O)C(O)C(O)CO.Cc1c(Nc2ncccc2C(=O)O)cccc1C(F)(F)F [Flunixin Meglumin] | 0.784 ± 0.061 | 0.759 ± 0.05
45 | CN(C)c1cc(CNCC(C)(C)C)c(O)c2c1CC1CC3C(N(C)C)C(O)=C(C(N)=O)C(=O)C3(O)C(O)=C1C2=O.Cc1ccc(S(=O)(=O)O)cc1 (stereo not drawn) [Omadacycline tosylate] | 0.774 ± 0.1 | 0.732 ± 0.012
46 | Cc1c(C(=O)Nc2ccc(N3CC(C)OC(C)C3)nc2)cccc1-c1ccc(OC(F)(F)F)cc1 (stereo not drawn) [Sonidegib (Erismodegib, NVP-LDE225)] | 0.831 ± 0.24 | 0.893 ± 0.16
47 | NC(CC(=O)N1CCn2c(nnc2C(F)(F)F)C1)Cc1cc(F)c(F)cc1F.O.O=P(O)(O)O (stereo not drawn) [Sitagliptin phosphate monohydrate] | 0.738 ± 0.13 | 1.13 ± 0.2
48 | O=C(O)CCC(=O)c1ccc(-c2ccccc2)cc1 [Fenbufen] | 0.686 ± 0.32 | 1.07 ± 0.22
49 | CNC(=O)c1cc(Oc2ccc(NC(=O)Nc3ccc(Cl)c(C(F)(F)F)c3)c(F)c2)ccn1.O [Regorafenib Monohydrate] | 0.94 ± 0.099 | 0.903 ± 0.0094
50 | NC(=O)NO [Hydroxyurea] | 0.784 ± 0.15 | 0.959 ± 0.26
51 | CCCCNC(=O)NS(=O)(=O)c1ccc(C)cc1 [Tolbutamide] | 0.534 ± 0.42 | 0.789 ± 0.22
52 | C=CC(=O)Nc1cc(Nc2nccc(-c3cn(C)c4ccccc34)n2)c(OC)cc1N(C)CCN(C)C [Osimertinib (AZD9291)] | 1.37 ± 0.43 | 1.25 ± 0.022
53 | CCCCCCNC(=O)n1cc(F)c(=O)[nH]c1=O [Carmofur] | 1.052 ± 0.002 | 0.741 ± 0.29
54 | CN1C(C(=O)Nc2ccccn2)=C(O)c2sccc2S1(=O)=O [Tenoxicam] | 0.868 ± 0.2 | 0.666 ± 0.041
55 | COc1cc(/C=C/C(=O)/C=C(O)/C=C/c2ccc(O)c(OC)c2)ccc1O [Curcumin] | 1.12 ± 0.74 | 1.26 ± 0.19
56 | COC(=O)c1cc(OC)c2c(c1-c1c(CO)cc(OC)c3c1OCO3)OCO2 [Bicyclol] | 0.878 ± 0.019 | 0.856 ± 0.04
57 | Cn1c(=O)cc(N2CCCC(N)C2)n(Cc2ccccc2C#N)c1=O (stereo not drawn) [Alogliptin] | 0.799 ± 0.02 | 0.804 ± 0.055
58 | CC1CC2C3CC(F)C4=CC(=O)C=CC4(C)C3(F)C(O)CC2(C)C1(OC(=O)c1ccco1)C(=O)SCF (stereo not drawn) [fluticasone furoate] | 0.718 ± 0.049 | 0.908 ± 0.27
59 | CC(=O)OC1CCC2(C)C(CCC3(C)C2C(=O)C=C2C4C(C)C(C)CCC4(C)CCC23C)C1(C)C(=O)O (stereo not drawn) | 0.905 ± 0.025 | 0.881 ± 0.08
